# Data: PubChem BioAssay (Tox21)
# The shares of active, inactive and inconclusive entries below differ from those in the screen. A potency beside an inconclusive call is a rough fit, not a confirmed value. The source made the active and inactive calls. Calls come from the whole dose curve; as a rule, active = well fitted cell-killing curve with a large enough effect in the repeat runs; inconclusive = weak or mixed curves, or effect the other way; inactive = flat fitted curve, though single readings scatter.
# Test: cAMP Responsive Elements (CRE) small molecule agonists, cell-based qHTS assay: qHTS cell viability counter screen (AID 2060914); note: nearly all actives have a fitted effect of over 50% in size
# Details: CRE-bla HEK293T viability, CellTiter-Glo luminescence, 5 h; series mostly up to 92.4 µM; activity change, negative = cytotoxicity: at the top concentration
# Outline: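 HEK 293T CRE-bla; DMEM + 10% dialyzed FBS, 25 mM HEPES; 18 h pre-incubation; compound 3 h, 37 °C/5% CO2; CellTiter-Glo added after reporter read; luminescence after 30 min RT.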
# % is set by controls: 0 for no effect and ±100 for the full control effect; potency is the fitted concentration of half-maximal effect.
Structure (SMILES),Potency,"activity change, negative = cytotoxicity"
CCOCCOC(=O)/C=C/c1ccc(OC)cc1,"inconclusive: 33.5 µM [cytotoxic, partial curve, poor fit]",
Cc1ccc(S(=O)(=O)NCl)cc1,inactive,
CN(CCCN1c2ccccc2CCc2ccccc21)CC(=O)c1ccc(Cl)cc1,,inactive: -0.592% [at 42.5 µM]
C=C1c2cccc(O)c2C(O)=C2C(=O)[C@]3(O)C(O)=C(C(N)=O)C(=O)[C@@H](N(C)C)[C@@H]3[C@@H](O)[C@H]12,"inconclusive: 13.3 µM [rising, single point]",
CN1Cc2cc(C(=O)N3CCC(C4CCNCC4)CC3)ccc2N[C@@H](CC(=O)O)C1=O,,inactive: -4.8% [at 42.5 µM]
N[C@@H](Cc1ccc(O)cc1)C(=O)O,"inconclusive: 0.545 µM [cytotoxic, single point]",
CC1=C(Br)C(=O)C(Br)=C/C1=C(/c1ccccc1S(=O)(=O)O)c1cc(Br)c(O)c(Br)c1C,"inconclusive: 29.4 µM [cytotoxic, partial curve, poor fit]",
CCO[Si](OCC)(OCC)c1ccccc1,,inactive: 7.2%
C=CC(=O)N1CCOCC1,"inconclusive: 15.4 µM [cytotoxic, single point]",
CC(C(=O)O)c1ccc(C(=O)c2cccs2)cc1 (stereo not drawn),,inactive: -7.8% [at 42.5 µM]
CCCCOCC(C)O (stereo not drawn),,inactive: -9.12%
O=C(O)c1cc(C(=O)O)cc(C(=O)O)c1,,inactive: -10.3%

# Single records, as listed above:
# `C=CC(=O)N1CCOCC1` reads Potency: inconclusive: 15.4 µM [cytotoxic, single point]
# `N[C@@H](Cc1ccc(O)cc1)C(=O)O` reads Potency: inconclusive: 0.545 µM [cytotoxic, single point]
